# Tested on: 5-HT1C receptor
# Settings: anhydrous Form I compound
structure (smiles),measurement,value
"Cc1cc2c(s1)Nc1ccccc1N=C2N1CCN(C)CC1 [anhydrous Form I, 2-methyl-4-(4-methyl-1-piperazinyl)-10H-thieno[2,3-b][1,5]-benzodiazepine]",activity at 5-HT1C receptor,active

# Reference: patent US5696115A, “Method for treating nicotine withdrawal” (Eli Lilly and Company, priority 1995, dated 1997)
